Cleaved PARP after 72 h of treatment

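Human melanoma cell lines in 1,536-well plates were treated with two drugs together for 72 h, then fixed, stained and imaged. Each value is the cleaved-PARP-positive fraction of nuclei relative to DMSO-treated wells, in %, so that 100 equals the control and higher values mean more apoptosis. Every drug was used at one fixed concentration, the higher of two screened. These are primary screening values without error estimates. The marker varies much from line to line, for technical or biological reasons.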 Only some of the drugs and lines screened are listed, without regard to their results. An entry leaves out what has no value listed here. A dash means that no value is listed here.

All values are for the listed drug together with L-779450 (1 µM): Oc1cc(-c2nc(-c3ccccc3)[nH]c2-c2ccncc2)ccc1Cl

Second drug,COLO 829,A375,WM1745,COLO 792,WM115,WM451Lu,IPC-298,SK-MEL-2,G-361,LOX IMVI,WM3619,A2058,MEL-HO,IST-MEL1,SK-MEL-30
Cn1c(=O)n(-c2ccc(C(C)(C)C#N)cc2)c2c3cc(-c4cnc5ccccc5c4)ccc3ncc21 at 0.02 µM,147,285,-,133,973,308,120,836,146,11.9,231,204,309,195,163
CC[C@]1(O)C[C@H]2CN(CCc3c([nH]c4ccccc34)[C@@](C(=O)OC)(c3cc4c(cc3OC)N(C=O)[C@H]3[C@@](O)(C(=O)OC)[C@H](OC(C)=O)[C@]5(CC)C=CCN6CC[C@]43[C@@H]65)C2)C1 at 0.0005 µM,331,343,-,19.1,188,5530,103,591,307,168,237,3440,146,250,349
O=C(Oc1ccc([N+](=O)[O-])cc1)N1CCC(C(O)(c2ccc3c(c2)OCO3)c2ccc3c(c2)OCO3)CC1 at 5 µM,216,237,171,64.8,276,312,49.3,1600,109,63.5,232,127,215,30.9,135
Cn1cnc2c(F)c(Nc3ccc(Br)cc3Cl)c(C(=O)NOCCO)cc21 at 0.075 µM,433,307,-,95.4,802,1540,85.3,1080,310,372,174,293,51.9,89.3,98.1
C[C@@H]1CCN(C(=O)CC#N)C[C@@H]1N(C)c1ncnc2[nH]ccc12 at 5 µM,281,269,189,90.5,418,114,62.9,347,158,141,123,88.2,51.5,69.7,97.7
Cn1cc(/C=C2\C(=O)Nc3cccnc32)c2ccccc21 at 2 µM,251,201,214,113,105,285,113,169,201,212,123,111,58.0,69.9,139
Nc1nc(F)nc2c1ncn2[C@@H]1O[C@H](CO)[C@@H](O)[C@@H]1O at 1 µM,411,257,-,111,428,334,48.8,1410,376,113,241,163,227,62.3,532
CN(NC(=O)CC(=O)NN(C)C(=S)c1ccccc1)C(=S)c1ccccc1 at 0.03 µM,453,320,394,877,209,277,27.4,363,643,102,1330,3370,56.7,185,51.8
O=C(/C=C/c1cccnc1)NCCCCC1CCN(C(=O)c2ccccc2)CC1 at 0.05 µM,218,129,-,327,851,1230,129,500,2050,209,84.5,116,575,283,164
O=S(=O)(c1ccccc1)N(CC(F)(F)F)c1ccc(C(O)(C(F)(F)F)C(F)(F)F)cc1 at 7 µM,223,278,164,96.9,518,342,113,617,241,88.9,132,95.0,225,109,118
NC(=O)Nc1cc(-c2cccc(F)c2)sc1C(=O)N[C@H]1CCCNC1 at 0.1 µM,265,165,167,353,651,271,76.1,286,74.4,123,409,175,76.0,95.1,238
CN(c1ncccc1CNc1nc(Nc2ccc3c(c2)CC(=O)N3)ncc1C(F)(F)F)S(C)(=O)=O at 0.4 µM,226,295,-,99.3,424,1780,57.8,1380,141,188,117,124,469,105,183
O=C(Nc1cc(C(F)(F)F)cc(C(F)(F)F)c1)c1cc(Cl)ccc1O at 0.08 µM,86.3,392,-,67.5,85.9,342,106,217,207,99.2,88.8,82.2,157,153,85.2
Cn1cncc1[C@@](N)(c1ccc(Cl)cc1)c1ccc2c(c1)c(-c1cccc(Cl)c1)cc(=O)n2C at 0.05 µM,188,451,172,192,398,219,82.3,196,224,92.3,137,174,314,130,95.8
Oc1nc(-c2ccc(C(F)(F)F)cc2)nc2c1CSCC2 at 10 µM,127,331,174,112,209,98.9,21.2,499,132,91.6,145,113,50.4,33.8,94.8
CC(=O)O[C@@]12CO[C@@H]1C[C@H](O)[C@@]1(C)C(=O)[C@H](O)C3=C(C)[C@@H](OC(=O)[C@H](O)[C@@H](NC(=O)OC(C)(C)C)c4ccccc4)C[C@@](O)([C@@H](OC(=O)c4ccccc4)[C@H]21)C3(C)C at 0.0005 µM,345,362,-,824,277,3800,234,1580,968,246,206,4910,130,284,461
C=CCNC1=C2C[C@@H](C)C[C@H](OC)[C@H](O)[C@@H](C)/C=C(\C)[C@H](OC(N)=O)[C@@H](OC)/C=C\C=C(/C)C(=O)NC(=CC1=O)C2=O at 0.01 µM,133,167,-,132,853,647,37.0,344,243,129,151,159,96.5,132,72.3
C[C@]1(O)C[C@@H](c2nc(-c3ccc4ccc(-c5ccccc5)nc4c3)c3c(N)nccn32)C1 at 2 µM,165,243,-,81.2,39.9,530,88.8,785,321,213,116,104,96.6,128,123
COC(=O)c1sccc1S(=O)(=O)Nc1ccc(Nc2ccccc2)cc1OC at 5 µM,117,164,163,65.5,167,267,69.2,579,302,133,90.9,65.8,49.9,137,58.0
Nc1cccc2c1CN(C1CCC(=O)NC1=O)C2=O (stereo unspecified) at 5 µM,130,555,180,81.9,460,194,98.9,555,167,204,193,159,52.9,122,27.4
COc1cc2ncnc(Nc3ccc(Oc4ccccc4)cc3)c2cc1OC at 10 µM,213,57.2,195,41.6,210,326,50.2,521,144,194,173,129,61.6,164,30.3
C[C@@H](N)c1ccc(C(=O)Nc2ccnc3[nH]ccc23)cc1 at 2 µM,150,172,-,69.2,57.9,454,39.9,317,226,170,326,140,181,150,102
Cc1cc(N2CCOCC2)cc2[nH]c(-c3c(NC[C@@H](O)c4cccc(Cl)c4)cc[nH]c3=O)nc12 at 1 µM,110,159,300,76.8,416,373,44.3,1120,170,203,145,94.8,52.9,133,46.1

3 of the entries, repeated:

* Cn1cnc2c(F)c(Nc3ccc(Br)cc3Cl)c(C(=O)NOCCO)cc21 at 0.075 µM : COLO 829: 433; A375: 307; COLO 792: 95.4; WM115: 802; WM451Lu: 1540; IPC-298: 85.3; SK-MEL-2: 1080; G-361: 310; LOX IMVI: 372; WM3619: 174; A2058: 293; MEL-HO: 51.9; IST-MEL1: 89.3; SK-MEL-30: 98.1
* C[C@@H]1CCN(C(=O)CC#N)C[C@@H]1N(C)c1ncnc2[nH]ccc12 at 5 µM : COLO 829: 281; A375: 269; WM1745: 189; COLO 792: 90.5; WM115: 418; WM451Lu: 114; IPC-298: 62.9; SK-MEL-2: 347; G-361: 158; LOX IMVI: 141; WM3619: 123; A2058: 88.2; MEL-HO: 51.5; IST-MEL1: 69.7; SK-MEL-30: 97.7
* Cn1cc(/C=C2\C(=O)Nc3cccnc32)c2ccccc21 at 2 µM : COLO 829: 251; A375: 201; WM1745: 214; COLO 792: 113; WM115: 105; WM451Lu: 285; IPC-298: 113; SK-MEL-2: 169; G-361: 201; LOX IMVI: 212; WM3619: 123; A2058: 111; MEL-HO: 58.0; IST-MEL1: 69.9; SK-MEL-30: 139

Values as published with doi:10.1371/journal.pone.0140310, rounded.